Reference: publication PMC6586287, “Blocking transmembrane219 protein signaling inhibits autophagy and restores normal cell death” (PLoS ONE, 2019)
No constants are given. Whether binding was seen depends on the method and setting. In cells and extracts the contact can be indirect. For some assays here: Binding calls can cover weak binding; strength is not graded here.

Columns and labels:
[1] = target: Transmembrane 219 (TM219) protein, endogenous (human (endogenous in THP1 and MCF7)) (UniProt Q86XT9); experiment: co-IP; MCF7 cells not treated with IGFBP3; anti-TM219 antibody crosslinked to beads in a column; blot with anti-CaMKII
[2] = target: Transmembrane 219 (TM219) protein, endogenous (human (endogenous in THP1 and MCF7)) (UniProt Q86XT9); experiment: co-IP; MCF7 cells treated with 1 μM IGFBP3; anti-TM219 antibody crosslinked to beads in a column; blots with anti-CaMKII and anti-calmodulin; control normal mouse antibodies

binding [2]: binds
Substance: Calcium/Calmodulin dependent protein kinase II (human (endogenous in MCF7)) (enzyme)
binding [1]: no binding (only cells not treated with IGFBP3)
